The source of these data is PMC10165269.

Protein sequences, listed by entry. Tags and fused reporters are not part of them.
UniProt Q7Z434: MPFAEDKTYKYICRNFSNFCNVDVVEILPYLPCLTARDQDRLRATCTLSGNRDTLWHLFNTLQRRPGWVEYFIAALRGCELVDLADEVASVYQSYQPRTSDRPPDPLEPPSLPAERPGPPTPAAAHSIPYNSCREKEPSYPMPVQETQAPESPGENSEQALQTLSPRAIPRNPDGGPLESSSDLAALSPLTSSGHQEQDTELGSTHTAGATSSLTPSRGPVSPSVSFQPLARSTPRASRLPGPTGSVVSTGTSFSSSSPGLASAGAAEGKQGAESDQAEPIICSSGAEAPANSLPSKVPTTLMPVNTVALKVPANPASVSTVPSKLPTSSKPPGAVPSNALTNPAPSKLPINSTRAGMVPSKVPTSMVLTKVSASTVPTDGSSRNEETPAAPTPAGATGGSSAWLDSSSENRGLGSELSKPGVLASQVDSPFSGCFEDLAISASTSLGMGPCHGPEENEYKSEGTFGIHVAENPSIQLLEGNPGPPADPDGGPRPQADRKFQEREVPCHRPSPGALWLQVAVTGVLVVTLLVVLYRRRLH
UniProt Q13263: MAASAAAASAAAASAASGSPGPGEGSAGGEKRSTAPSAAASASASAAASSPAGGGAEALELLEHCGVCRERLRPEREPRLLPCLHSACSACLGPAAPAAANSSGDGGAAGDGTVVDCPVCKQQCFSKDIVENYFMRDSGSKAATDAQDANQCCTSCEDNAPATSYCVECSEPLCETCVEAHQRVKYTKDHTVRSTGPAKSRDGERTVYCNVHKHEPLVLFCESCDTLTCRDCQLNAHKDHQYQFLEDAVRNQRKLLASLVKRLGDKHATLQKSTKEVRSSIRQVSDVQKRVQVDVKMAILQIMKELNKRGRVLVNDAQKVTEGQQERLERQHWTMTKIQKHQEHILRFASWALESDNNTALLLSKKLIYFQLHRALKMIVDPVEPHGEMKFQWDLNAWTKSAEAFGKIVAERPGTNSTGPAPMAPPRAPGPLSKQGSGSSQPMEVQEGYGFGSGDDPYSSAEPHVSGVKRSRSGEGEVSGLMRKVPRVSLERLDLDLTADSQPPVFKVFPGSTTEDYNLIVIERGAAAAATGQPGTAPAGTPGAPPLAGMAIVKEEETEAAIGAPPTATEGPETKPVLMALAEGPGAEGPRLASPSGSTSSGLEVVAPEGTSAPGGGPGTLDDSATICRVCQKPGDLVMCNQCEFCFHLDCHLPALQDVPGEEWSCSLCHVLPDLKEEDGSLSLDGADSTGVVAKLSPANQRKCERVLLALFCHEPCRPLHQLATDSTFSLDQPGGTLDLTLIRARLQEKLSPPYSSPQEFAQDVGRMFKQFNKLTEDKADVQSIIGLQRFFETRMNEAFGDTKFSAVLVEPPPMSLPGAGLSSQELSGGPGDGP

No constants are given. Whether binding was seen depends on the method and setting. Binding seen in cells or lysates may run through a third protein. Some results given as binding are weak or reduced against the parent protein; the word gives no strength.

Assay [1] deals with HA-tagged MAVS (human) (UniProt Q7Z434). Kind of assay: co-IP; 293T cells cotransfected with HA-tagged MAVS and Flag-tagged TRIM28 or its mutants, 48 h; RIPA lysate; immunoprecipitated with an anti-HA antibody on Protein A/G magnetic beads, 2 h at 4 °C; immunoblot with an anti-Flag antibody. (A western blot detects proteins with antibodies after separation by electrophoresis.)
Assay [2] deals with mitochondrial antiviral signaling (MAVS) protein, endogenous (human (endogenous in HEK293T)) (UniProt Q7Z434). Nature of the assay: co-IP; endogenous proteins of 293T cells, uninfected or infected with SeV (MOI = 1) for the indicated times; RIPA lysate; immunoprecipitated with an anti-MAVS antibody on Protein A/G magnetic beads, 2 h at 4 °C; immunoblot with an anti-TRIM28 antibody.

Take “Flag-tagged TRIM28 (TRIM28-WT) (from UniProt Q13263 1-835)”: in assay [1], the binding entry is recorded as “binds”.
As to “tripartite motif 28 (TRIM28), endogenous (from UniProt Q13263 1-835)”, the binding result in assay [2] is recorded as “binds”.
